This note sets out measurements from PubChem BioAssay AID248 (DTP/NCI, 2004).

Each structure is given as a SMILES string. The list does not hold the whole screen: it is rich in T/C values a quarter to a half above the control, in often repeated tests (any T/C) and in doses without a T/C. Further doses and runs are listed elsewhere. T/C is the treated group as % of the vehicle group. Some doses have a count of surviving animals in place of a T/C: the source files T/C as zero there, which appears to mark a toxic dose or a test without result, not a measured value. Some survivor counts are full or nearly so, which does not show that the dose was tolerated: the source hardly ever lists a survival T/C far under the control, and the zero likely stands for such cases as well. Survivors were counted at the toxicity check, usually on the fifth day, unless a day is given; later deaths do not show. Schedules are NCI's codes, read here as Q, the interval in days (D) or hours (H), X, the number of doses. Some schedule codes hold Z or #, which are not explained here. For survival time, the PubChem record calls one and a half times the control and up active, and a quarter to a half above the control has no call in these data; cut-offs in other NCI protocols can differ. Some T/C values are followed by the survivors on the day toxicity was checked, most often the fifth; where none is given, no animal had died by that day.

The test deals with L1210 leukemia ip in BDF1 mice, survival T/C. As to the kind of experiment: NCI In Vivo Anticancer Drug Screen. Data for tumor model L1210 Leukemia (intraperitoneal) in B6D2F1 (BDF1) mice. Conditions: T/C endpoint: mean survival time, higher T/C = longer survival.
The mark [1] stands for this setting: dose: 100.0 mg/kg/injection, schedule: Q04DX003 (ip), vehicle: saline.
[2] abbreviates: dose: 200.0 mg/kg/injection, schedule: Q04DX003 (ip), vehicle: saline.
[3] abbreviates: dose: 400.0 mg/kg/injection, schedule: Q04DX003 (ip), vehicle: saline.
Where [4] appears, read: dose: 400.0 mg/kg/injection, schedule: Q01DX001 (ip), vehicle: saline.
[5] abbreviates: dose: 200.0 mg/kg/injection, schedule: Q04DX003 (ip), vehicle: saline with Tween-80.
Setting [6] is: dose: 400.0 mg/kg/injection, schedule: Q04DX003 (ip), vehicle: saline with Tween-80.
The mark [7] stands for this setting: dose: 50.0 mg/kg/injection, schedule: Q04DX003 (ip), vehicle: saline.

Consider `C[N+](C)(CCCCCCCCCC[N+](C)(C)CC(=O)c1ccccc1)CC(=O)c1ccccc1`, for which the survivor count under setting [1] is 0 of 6, the survivor count under setting [2] was 0 of 6 and the survivor count under setting [3] is reported as 0 of 6.
Regarding `FC(F)(F)C(Cl)Br` (stereo not given), the survivor count is, setting by setting: (dose: 200.0 mg/kg/injection, schedule: Q01DX001 (ip), vehicle: saline) 3 of 6; under setting [4], 3 of 6; (dose: 4000.0 mg/kg/injection, schedule: Q05DX002 (ip), vehicle: water) 1 of 10.
As to `COc1cc(CCN)ccc1OCc1ccccc1`, the survivor count is given as 2 of 6 (dose: 200.0 mg/kg/injection, schedule: Q04DX003 (ip), vehicle: Klucel (hydroxypropylcellulose) (HPC)); 1 of 6 (dose: 400.0 mg/kg/injection, schedule: Q01DX001 (ip), vehicle: Klucel (hydroxypropylcellulose) (HPC)); 0 of 6 (dose: 400.0 mg/kg/injection, schedule: Q04DX003 (ip), vehicle: Klucel (hydroxypropylcellulose) (HPC)).
Take `CSc1ncnc2[nH]ncc12`: the survivor count by setting is: (dose: 100.0 mg/kg/injection, schedule: Q01DX009 (ip), vehicle: saline with Tween-80) 3 of 6; under setting [5], 1 of 6; under setting [6], 0 of 6.
Take `CC(O)CN(CC(C)O)c1ccccc1` (stereo not given): the survivor count (dose: 400.0 mg/kg/injection, schedule: Q01DX009 (ip), vehicle: saline with Tween-80) was 3 of 6.
As for `NC(N)=Nc1ccc(NC(=O)c2ccc(C(=O)Nc3ccc(N=C(N)N)cc3)cc2)cc1`, the survivor count is 6 of 6 (dose: 15.0 mg/kg/injection, schedule: Q01DX Z (ip), vehicle: carboxymethylcellulose (CMC)); 6 of 6 (dose: 15.0 mg/kg/injection, schedule: Q01DX Z (ip), vehicle: methylcellulose (MC)); 0 of 6 (dose: 30.0 mg/kg/injection, schedule: Q01DX Z (ip), vehicle: methylcellulose (MC)); 0 of 6 (dose: 60.0 mg/kg/injection, schedule: Q01DX Z (ip), vehicle: methylcellulose (MC)); 0 of 6 (dose: 120.0 mg/kg/injection, schedule: Q01DX Z (ip), vehicle: methylcellulose (MC)).
For `CC1CCCC(CN=Cc2ccc(O)cc2O)[N-]1.CC1CCCC(CN=Cc2ccc(O)cc2O)[N-]1.[Ni+2]` (stereo not given), the survivor count is, setting by setting: under setting [5], 5 of 6; under setting [6], 3 of 6.
Regarding `CN1CCC=C(CN2c3ccccc3Sc3ccccc32)C1`, the survivor count is given as 1 of 6 under setting [2] and 0 of 6 under setting [3].
Take `Cn1c(=O)c2[nH]c(C3CCCCCC3)nc2n(C)c1=O`: under setting [4], the survivor count is 1 of 4.
As for `O=C(Nc1ccc(C2=NCCCN2)cc1)c1ccc(C(=O)Nc2ccc(C3=NCCCN3)cc2)nc1`, the survivor count reads like this: (dose: 1.5 mg/kg/injection, schedule: Q01DX Z (ip), vehicle: water) 0 of 6; (dose: 3.0 mg/kg/injection, schedule: Q01DX Z (ip), vehicle: water) 2 of 6; (dose: 6.0 mg/kg/injection, schedule: Q01DX Z (ip), vehicle: water) 2 of 6; (dose: 12.0 mg/kg/injection, schedule: Q01DX Z (ip), vehicle: water) 0 of 6; (dose: 30.0 mg/kg/injection, schedule: Q01DX001 (ip), vehicle: water) 0 of 6; (dose: 60.0 mg/kg/injection, schedule: Q01DX001 (ip), vehicle: water) 0 of 6. For the same compound, the T/C (dose: 15.0 mg/kg/injection, schedule: Q01DX001 (ip), vehicle: water) was 131 % of control [4 of 6 alive].
In the case of `CN(N=O)C(=O)Nc1ccccc1`, the T/C (dose: 300.0 mg/kg/injection, schedule: Q01DX001 (ip), vehicle: carboxymethylcellulose (CMC)) was 128 % of control. In addition, the survivor count (dose: 1200.0 mg/kg/injection, schedule: Q01DX001 (ip), vehicle: carboxymethylcellulose (CMC)) is listed as 0 of 10 and the survivor count (dose: 2400.0 mg/kg/injection, schedule: Q01DX001 (ip), vehicle: carboxymethylcellulose (CMC)) is 0 of 10.
Take `CCOP(=O)(/N=C1/C2CCC(C2)C1C)OCC` (stereo not given): the survivor count is listed as 1 of 6 under setting [1], 0 of 6 under setting [2] and 0 of 6 under setting [3].
As to `CN(C)Cc1ccc([N+](=O)[O-])cc1`, the survivor count is on record as 3 of 6 (dose: 150.0 mg/kg/injection, schedule: Q01DX001 (ip), vehicle: other); 0 of 6 (dose: 300.0 mg/kg/injection, schedule: Q01DX001 (ip), vehicle: other); 6 of 6 under setting [3].
As for `O=C(CCCCCCC(=O)C[N+]12CCC(CC1)C(O)C2)C[N+]12CCC(CC1)C(O)C2` (stereo not given), the survivor count runs as follows: (dose: 12.5 mg/kg/injection, schedule: Q04DX003 (ip), vehicle: saline) 0 of 6; (dose: 25.0 mg/kg/injection, schedule: Q04DX003 (ip), vehicle: saline) 0 of 6; under setting [7], 0 of 6; under setting [1], 0 of 6; under setting [2], 0 of 6; under setting [3], 0 of 6.
`CC(=O)OC12CC[N+]3(C)CCCCC3C1=Nc1ccccc12` (stereo not given): the survivor count under setting [7] is 6 of 6; the survivor count (dose: 100.0 mg/kg/injection, schedule: Q01DX001 (ip), vehicle: carboxymethylcellulose (CMC)) was 0 of 4; the survivor count under setting [1] is on record as 0 of 6; the survivor count (dose: 200.0 mg/kg/injection, schedule: Q01DX001 (ip), vehicle: carboxymethylcellulose (CMC)) is 0 of 4; the survivor count (dose: 400.0 mg/kg/injection, schedule: Q01DX001 (ip), vehicle: carboxymethylcellulose (CMC)) is listed as 0 of 4.
